Data taken from US20220177583A1.
These are yes or no findings as the source states them, for the method shown. Some binding calls cover weakened binding; strength is not graded here. For some of these results: Where a sequence is shown, tags or fusion partners need not be part of it.

Amino acid sequences for entries named in this document (tags omitted). A change or cut given only in a name is not applied to a line headed by its entry.
UniProt P56747: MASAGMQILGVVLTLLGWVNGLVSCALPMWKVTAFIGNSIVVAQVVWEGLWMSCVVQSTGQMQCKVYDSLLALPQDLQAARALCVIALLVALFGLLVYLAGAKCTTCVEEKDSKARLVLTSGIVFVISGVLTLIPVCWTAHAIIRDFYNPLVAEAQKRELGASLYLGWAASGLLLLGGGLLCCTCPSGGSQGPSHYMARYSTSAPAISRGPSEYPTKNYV

Experiments:
[1] = molecular target: human CLDN6, endogenously expressed on cancer cell lines (human) (UniProt P56747); assay: FACS, ARK2 cells
[2] = molecular target: human CLDN6, endogenously expressed on cancer cell lines (human) (UniProt P56747); assay: FACS, 293T-CLDN6-GFP and ARK2 cells
[3] = molecular target: human CLDN6, endogenously expressed on cancer cell lines (human) (UniProt P56747); assay: FACS on ARK2 cells, scFv followed by secondary antibody
[4] = molecular target: human CLDN6, endogenously expressed on cancer cell lines (human) (UniProt P56747); assay: flow cytometry and cell staining, ARK2 cells
[5] = molecular target: human CLDN6, endogenously expressed on cancer cell lines (human) (UniProt P56747); assay: flow cytometry, anti-HIS secondary, ARK2 cells
[6] = molecular target: human CLDN6, endogenously expressed on cancer cell lines (human) (UniProt P56747); assay: flow cytometry on ARK2 cells, anti-HIS secondary antibody, FL4-H
[7] = molecular target: human CLDN6, endogenously expressed on cancer cell lines (human) (UniProt P56747); assay: FACS binding assay, limiting dilution 0.32, 1.6, 8, 40, 200, 1000 nM, on OV90, ARK2 and UMUC4 cells
[8] = molecular target: human CLDN6, endogenously expressed on cancer cell lines (human) (UniProt P56747); assay: FACS on OVCA429 cells, 1 wash after the primary, 0, 1 or 2 washes after the Dylight 649 secondary antibody
[9] = molecular target: human CLDN6, endogenously expressed on cancer cell lines (human) (UniProt P56747); assay: FACS and immunostaining, OVCA429 cells
[10] = molecular target: human CLDN6, endogenously expressed on cancer cell lines (human) (UniProt P56747); assay: FACS, OVCA429 cells, anti-human IgG (H+L) secondary
[11] = molecular target: human CLDN6, endogenously expressed on cancer cell lines (human) (UniProt P56747); assay: FACS on OVCA429 cells, 1 wash after the Fab, 0, 1 or 2 washes after the Dylight 649 secondary antibody
[12] = molecular target: human CLDN6, endogenously expressed on cancer cell lines (human) (UniProt P56747); assay: FACS on OVCA429 cells, no wash after the Fab, 0, 1 or 2 washes after the Dylight 649 secondary antibody
[13] = molecular target: human CLDN6, endogenously expressed on cancer cell lines (human) (UniProt P56747); assay: FACS on OVCA429 cells, 2 washes after the Fab, 0, 1 or 2 washes after the Dylight 649 secondary antibody

Measured: binding

B1: AB1-11 scFv (scFv)
scFv: DIQLTQSPSSLSASVGDRVTMTCTASSSVSSTYFHWYQQKPGKAPKLWIYSTSNLASGVPSRFSGSGSGTDYTLTISSMQPEDAATYYCHQYHRSPLTFGQGTKLEIKGGGGSGGGGSGGGGSQVQLVQSGAEVKKPGASVKMSCKASGYTFTTYTMHWVRQAPGQGLEWIGFINPSSGYTDYAQKFQGRVTLTADKSTSTVYMELSSLRSEDTAVYYCANGDYYVAYWGQGTLVTVSS
binds: [1] | [2] | [3]

B2: TandAb-11 (CLDN6-binding moiety of AB1-11 fused to the CD16A-binding moiety) (bispecific antibody)
chain: QVQLVQSGAEVKKPGESLKVSCKASGYTFTSYYMHWVRQAPGQGLEWMGIINPSGGSTSYAQKFQGRVTMTRDTSTSTVYMELSSLRSEDTAVYYCARGSAYYYDFADYWGQGTLVTVSSGGSGGSGGSDIQLTQSPSSLSASVGDRVTMTCTASSSVSSTYFHWYQQKPGKAPKLWIYSTSNLASGVPSRFSGSGSGTDYTLTISSMQPEDAATYYCHQYHRSPLTFGQGTKLEIKGGSGGSGGSQVQLVQSGAEVKKPGASVKMSCKASGYTFTTYTMHWVRQAPGQGLEWIGFINPSSGYTDYAQKFQGRVTLTADKSTSTVYMELSSLRSEDTAVYYCANGDYYVAYWGQGTLVTVSSGGSGGSGGSSYVLTQPSSVSVAPGQTATISCGGHNIGSKNVHWYQQRPGQSPVLVIYQDNKRPSGIPERFSGSNSGNTATLTISGTQAMDEADYYCQVWDNYSVLFGGGTKLTVLHHHHHH
binds: [4] | [5] | [6]

B3: AB1-11 (antibody, V domains shown)
VH: QVQLVQSGAEVKKPGASVKMSCKASGYTFTTYTMHWVRQAPGQGLEWIGFINPSSGYTDYAQKFQGRVTLTADKSTSTVYMELSSLRSEDTAVYYCANGDYYVAYWGQGTLVTVSS
VL: DIQLTQSPSSLSASVGDRVTMTCTASSSVSSTYFHWYQQKPGKAPKLWIYSTSNLASGVPSRFSGSGSGTDYTLTISSMQPEDAATYYCHQYHRSPLTFGQGTKLEIK
binds: [7] | [8]

B4: AB1-11 Fab (Fab, V domains shown)
VH: B3 VH
VL: B3 VL
binds: [9] | [10] | [11] | [12] | [13]

B5: BiTE-11 (AB1-11 VL and VH fused with CD3E VH and VL) (bispecific antibody, V domains shown, not shown: small tags and cut ends)
VH: B3 VH
VL: B3 VL
binds: [4] | [5] | [6]
